According to the supplement of paper PMC10849652:
The list shows a part of the results.

Sequences of proteins named here, by UniProt entry; tags and fusion partners are left off. A change or cut given only in a name is not applied to a line headed by its entry.
UniProt Q96A54: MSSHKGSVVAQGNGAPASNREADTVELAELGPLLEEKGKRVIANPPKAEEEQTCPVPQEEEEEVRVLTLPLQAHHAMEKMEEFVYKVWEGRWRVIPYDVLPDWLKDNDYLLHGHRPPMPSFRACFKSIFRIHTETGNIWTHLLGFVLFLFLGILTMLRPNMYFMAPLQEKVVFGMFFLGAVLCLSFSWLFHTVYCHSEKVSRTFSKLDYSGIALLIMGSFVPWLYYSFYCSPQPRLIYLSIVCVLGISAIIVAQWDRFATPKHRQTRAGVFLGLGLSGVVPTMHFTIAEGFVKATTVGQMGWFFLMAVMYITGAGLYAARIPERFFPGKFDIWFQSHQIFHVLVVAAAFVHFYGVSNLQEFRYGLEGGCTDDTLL
UniProt Q9H981, whole entry, looked up: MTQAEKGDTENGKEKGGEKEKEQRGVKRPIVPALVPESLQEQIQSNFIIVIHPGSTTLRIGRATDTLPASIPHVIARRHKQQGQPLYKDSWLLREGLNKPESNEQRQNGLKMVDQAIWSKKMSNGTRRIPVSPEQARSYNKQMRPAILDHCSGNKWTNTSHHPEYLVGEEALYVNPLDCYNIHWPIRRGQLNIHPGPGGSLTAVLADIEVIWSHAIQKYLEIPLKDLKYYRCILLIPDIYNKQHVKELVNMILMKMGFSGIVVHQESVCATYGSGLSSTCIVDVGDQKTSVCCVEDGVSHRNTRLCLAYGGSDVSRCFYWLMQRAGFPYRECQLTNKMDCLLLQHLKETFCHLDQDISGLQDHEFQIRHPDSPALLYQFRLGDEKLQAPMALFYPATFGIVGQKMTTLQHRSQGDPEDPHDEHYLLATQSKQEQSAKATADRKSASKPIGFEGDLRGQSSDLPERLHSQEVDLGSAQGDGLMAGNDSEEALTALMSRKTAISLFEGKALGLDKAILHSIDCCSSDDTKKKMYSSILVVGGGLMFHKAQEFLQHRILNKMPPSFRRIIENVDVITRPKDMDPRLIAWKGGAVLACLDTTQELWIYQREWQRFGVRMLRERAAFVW
UniProt P35612: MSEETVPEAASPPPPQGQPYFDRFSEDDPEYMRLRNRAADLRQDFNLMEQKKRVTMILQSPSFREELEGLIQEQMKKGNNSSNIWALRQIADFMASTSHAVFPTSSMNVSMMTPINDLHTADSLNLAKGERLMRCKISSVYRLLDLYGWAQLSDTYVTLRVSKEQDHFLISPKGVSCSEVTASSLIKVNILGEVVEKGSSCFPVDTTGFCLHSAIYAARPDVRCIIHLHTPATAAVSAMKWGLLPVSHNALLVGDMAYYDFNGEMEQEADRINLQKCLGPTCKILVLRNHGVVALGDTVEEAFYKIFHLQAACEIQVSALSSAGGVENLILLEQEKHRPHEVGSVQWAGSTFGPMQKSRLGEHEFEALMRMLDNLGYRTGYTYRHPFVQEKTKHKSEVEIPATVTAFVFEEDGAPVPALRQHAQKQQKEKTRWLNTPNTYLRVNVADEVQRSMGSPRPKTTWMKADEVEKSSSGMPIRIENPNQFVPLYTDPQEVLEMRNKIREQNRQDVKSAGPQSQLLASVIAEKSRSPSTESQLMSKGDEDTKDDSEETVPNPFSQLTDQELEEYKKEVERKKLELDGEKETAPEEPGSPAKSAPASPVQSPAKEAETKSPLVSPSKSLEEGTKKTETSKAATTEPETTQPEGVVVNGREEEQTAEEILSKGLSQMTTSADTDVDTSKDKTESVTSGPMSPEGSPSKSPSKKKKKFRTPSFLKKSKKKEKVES
UniProt Q9UEY8: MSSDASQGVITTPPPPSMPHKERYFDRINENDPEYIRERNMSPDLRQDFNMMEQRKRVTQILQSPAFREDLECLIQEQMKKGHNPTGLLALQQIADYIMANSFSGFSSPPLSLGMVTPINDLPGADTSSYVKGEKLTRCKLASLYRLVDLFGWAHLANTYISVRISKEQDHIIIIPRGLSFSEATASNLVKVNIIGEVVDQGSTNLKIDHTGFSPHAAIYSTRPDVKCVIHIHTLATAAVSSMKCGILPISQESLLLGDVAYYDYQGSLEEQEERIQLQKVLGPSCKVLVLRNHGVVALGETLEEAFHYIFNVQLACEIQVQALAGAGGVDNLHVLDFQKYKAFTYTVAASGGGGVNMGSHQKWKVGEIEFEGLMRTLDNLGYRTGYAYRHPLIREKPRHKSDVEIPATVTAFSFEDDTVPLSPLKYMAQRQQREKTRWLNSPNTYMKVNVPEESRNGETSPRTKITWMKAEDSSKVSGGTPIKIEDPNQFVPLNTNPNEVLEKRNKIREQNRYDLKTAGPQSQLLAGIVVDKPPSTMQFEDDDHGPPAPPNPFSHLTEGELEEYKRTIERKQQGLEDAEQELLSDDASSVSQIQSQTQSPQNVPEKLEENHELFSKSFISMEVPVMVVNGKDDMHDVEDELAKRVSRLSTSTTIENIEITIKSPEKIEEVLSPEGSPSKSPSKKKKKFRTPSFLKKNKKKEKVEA
UniProt Q9H9F9, whole entry, looked up: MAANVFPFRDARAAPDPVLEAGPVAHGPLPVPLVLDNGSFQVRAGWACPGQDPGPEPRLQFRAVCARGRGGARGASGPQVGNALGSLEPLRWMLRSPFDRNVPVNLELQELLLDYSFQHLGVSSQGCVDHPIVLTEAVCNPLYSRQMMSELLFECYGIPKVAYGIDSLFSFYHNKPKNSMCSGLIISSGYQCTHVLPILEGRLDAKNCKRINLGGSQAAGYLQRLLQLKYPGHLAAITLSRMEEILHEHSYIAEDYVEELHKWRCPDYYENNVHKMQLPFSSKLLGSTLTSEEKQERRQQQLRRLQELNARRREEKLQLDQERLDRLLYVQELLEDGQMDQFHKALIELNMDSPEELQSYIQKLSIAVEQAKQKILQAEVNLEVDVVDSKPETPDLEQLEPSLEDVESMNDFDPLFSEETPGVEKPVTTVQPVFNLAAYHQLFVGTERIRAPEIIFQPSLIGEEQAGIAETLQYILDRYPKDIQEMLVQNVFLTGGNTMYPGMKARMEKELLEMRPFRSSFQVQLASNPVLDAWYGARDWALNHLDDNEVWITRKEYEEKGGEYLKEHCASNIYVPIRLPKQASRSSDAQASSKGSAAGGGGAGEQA
UniProt P51828: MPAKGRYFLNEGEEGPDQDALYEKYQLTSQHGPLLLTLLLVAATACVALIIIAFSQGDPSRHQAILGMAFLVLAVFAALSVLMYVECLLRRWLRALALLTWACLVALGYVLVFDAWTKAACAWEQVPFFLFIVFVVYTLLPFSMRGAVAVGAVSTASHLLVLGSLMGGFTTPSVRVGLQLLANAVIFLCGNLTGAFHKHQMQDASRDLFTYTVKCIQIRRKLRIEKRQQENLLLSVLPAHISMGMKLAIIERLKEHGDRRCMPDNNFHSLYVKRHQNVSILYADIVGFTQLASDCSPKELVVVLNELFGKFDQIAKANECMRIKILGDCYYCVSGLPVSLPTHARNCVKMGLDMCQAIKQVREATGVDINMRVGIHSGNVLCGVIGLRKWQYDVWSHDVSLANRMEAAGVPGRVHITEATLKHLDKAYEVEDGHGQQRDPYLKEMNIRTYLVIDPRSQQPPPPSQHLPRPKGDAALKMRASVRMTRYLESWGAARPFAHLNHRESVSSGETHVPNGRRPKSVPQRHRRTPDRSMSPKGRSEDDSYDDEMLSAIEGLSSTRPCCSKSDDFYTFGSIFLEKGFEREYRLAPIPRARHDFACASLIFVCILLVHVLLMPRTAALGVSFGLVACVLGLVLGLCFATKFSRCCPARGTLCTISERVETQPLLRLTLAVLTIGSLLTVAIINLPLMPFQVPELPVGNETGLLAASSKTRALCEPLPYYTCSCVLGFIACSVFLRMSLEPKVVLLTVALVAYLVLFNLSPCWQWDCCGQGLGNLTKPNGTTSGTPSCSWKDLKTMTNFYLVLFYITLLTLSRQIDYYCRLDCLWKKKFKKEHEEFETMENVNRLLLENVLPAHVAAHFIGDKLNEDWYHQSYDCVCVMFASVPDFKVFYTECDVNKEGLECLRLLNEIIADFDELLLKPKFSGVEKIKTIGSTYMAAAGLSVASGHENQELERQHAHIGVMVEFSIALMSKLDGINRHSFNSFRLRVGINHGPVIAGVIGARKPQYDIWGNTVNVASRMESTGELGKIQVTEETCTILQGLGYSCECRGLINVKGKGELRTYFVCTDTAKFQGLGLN
UniProt P13686: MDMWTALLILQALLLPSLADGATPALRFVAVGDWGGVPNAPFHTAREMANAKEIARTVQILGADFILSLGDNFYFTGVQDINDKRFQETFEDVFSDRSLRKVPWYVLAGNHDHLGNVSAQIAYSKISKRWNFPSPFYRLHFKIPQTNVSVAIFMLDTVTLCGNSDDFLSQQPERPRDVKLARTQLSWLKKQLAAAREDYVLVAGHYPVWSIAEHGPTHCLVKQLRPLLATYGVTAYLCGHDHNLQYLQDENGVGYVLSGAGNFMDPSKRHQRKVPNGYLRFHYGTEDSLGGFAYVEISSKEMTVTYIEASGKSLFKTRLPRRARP
UniProt Q04771: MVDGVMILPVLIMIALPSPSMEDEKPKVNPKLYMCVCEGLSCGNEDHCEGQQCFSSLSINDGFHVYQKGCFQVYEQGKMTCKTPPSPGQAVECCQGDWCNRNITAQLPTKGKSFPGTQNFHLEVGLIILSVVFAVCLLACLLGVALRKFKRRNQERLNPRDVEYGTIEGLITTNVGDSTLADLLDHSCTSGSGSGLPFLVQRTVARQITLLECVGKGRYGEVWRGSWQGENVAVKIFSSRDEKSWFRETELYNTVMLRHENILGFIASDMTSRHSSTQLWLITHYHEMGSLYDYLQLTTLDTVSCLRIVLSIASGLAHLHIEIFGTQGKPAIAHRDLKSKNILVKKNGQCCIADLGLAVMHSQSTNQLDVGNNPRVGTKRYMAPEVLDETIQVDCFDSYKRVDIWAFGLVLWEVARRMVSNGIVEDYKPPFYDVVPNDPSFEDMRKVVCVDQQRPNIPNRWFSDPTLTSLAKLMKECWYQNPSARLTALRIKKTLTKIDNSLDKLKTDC
UniProt O15254: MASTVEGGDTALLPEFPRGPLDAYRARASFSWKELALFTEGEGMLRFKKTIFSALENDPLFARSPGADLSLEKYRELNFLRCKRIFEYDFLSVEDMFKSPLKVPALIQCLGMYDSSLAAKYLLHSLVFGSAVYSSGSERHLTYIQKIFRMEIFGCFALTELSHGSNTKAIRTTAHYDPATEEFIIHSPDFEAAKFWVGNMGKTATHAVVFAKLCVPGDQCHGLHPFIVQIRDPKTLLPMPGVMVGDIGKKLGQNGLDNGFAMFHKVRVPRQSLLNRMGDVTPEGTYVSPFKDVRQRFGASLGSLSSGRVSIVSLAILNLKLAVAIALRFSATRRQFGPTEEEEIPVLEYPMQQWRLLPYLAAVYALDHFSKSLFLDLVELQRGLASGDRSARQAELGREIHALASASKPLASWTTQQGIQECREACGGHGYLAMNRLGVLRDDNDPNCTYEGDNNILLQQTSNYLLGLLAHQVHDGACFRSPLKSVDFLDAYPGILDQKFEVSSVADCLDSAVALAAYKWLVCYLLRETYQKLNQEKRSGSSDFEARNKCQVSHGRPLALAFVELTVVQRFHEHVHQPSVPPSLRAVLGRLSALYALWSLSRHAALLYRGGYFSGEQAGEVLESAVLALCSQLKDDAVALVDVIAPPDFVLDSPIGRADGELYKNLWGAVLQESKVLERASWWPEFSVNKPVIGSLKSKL
UniProt Q96M93: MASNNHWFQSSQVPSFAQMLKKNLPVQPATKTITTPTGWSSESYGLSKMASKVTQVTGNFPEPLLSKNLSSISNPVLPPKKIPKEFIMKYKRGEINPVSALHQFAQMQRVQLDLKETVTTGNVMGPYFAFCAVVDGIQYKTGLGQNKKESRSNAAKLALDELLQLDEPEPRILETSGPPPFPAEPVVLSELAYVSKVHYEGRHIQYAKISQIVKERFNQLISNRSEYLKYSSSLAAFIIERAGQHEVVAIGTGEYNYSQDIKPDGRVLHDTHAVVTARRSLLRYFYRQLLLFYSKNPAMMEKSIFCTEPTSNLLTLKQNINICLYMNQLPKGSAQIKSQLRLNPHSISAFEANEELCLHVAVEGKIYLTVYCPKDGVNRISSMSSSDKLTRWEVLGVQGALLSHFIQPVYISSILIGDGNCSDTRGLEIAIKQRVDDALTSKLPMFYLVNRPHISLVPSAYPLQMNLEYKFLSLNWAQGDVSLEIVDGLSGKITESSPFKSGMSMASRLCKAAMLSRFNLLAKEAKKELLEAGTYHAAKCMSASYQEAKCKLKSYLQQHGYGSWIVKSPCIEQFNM
UniProt Q04828: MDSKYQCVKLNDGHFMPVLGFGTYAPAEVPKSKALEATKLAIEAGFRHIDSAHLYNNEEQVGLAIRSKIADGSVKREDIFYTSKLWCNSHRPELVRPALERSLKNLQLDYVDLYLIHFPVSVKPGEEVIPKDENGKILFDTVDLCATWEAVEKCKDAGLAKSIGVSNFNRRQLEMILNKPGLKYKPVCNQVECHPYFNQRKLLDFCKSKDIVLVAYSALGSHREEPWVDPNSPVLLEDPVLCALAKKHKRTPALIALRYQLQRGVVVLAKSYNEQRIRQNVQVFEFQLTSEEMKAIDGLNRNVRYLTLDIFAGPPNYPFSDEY

How the values were obtained:
Assay in all cases: log2 fold change, soluble protein after heating vs DMSO (PISA); higher = thermal stabilisation; K562 lysate, 10 uM; active = over 0.2 and 3.5 SD of the protein, either way, in both replicates (recomputed)
lapatinib = compound: CS(=O)(=O)CCNCc1ccc(-c2ccc3ncnc(Nc4ccc(OCc5cccc(F)c5)c(Cl)c4)c3c2)o1 [lapatinib]
Outline: (§1)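 Dounce homogenisation of K562 pellets in PBS pH 7.4 with 1 mM MgCl2 produced a crude extract, used at 1 mg/mL protein. Exposure to 10 μM compound lasted 30 min, and aliquots were then heated for 3 min across 48°C-58°C, pooled and brought to 0.5% NP-40 at 4°C. The supernatant after 21,000xg for 90 min was quantified by TMTpro 16plex LC-MS/MS with channel sums equalised. Duplicate values are given as log-two fold change in thermal stability relative to solvent controls.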

pictilisib = compound: CS(=O)(=O)N1CCN(Cc2cc3nc(-c4cccc5[nH]ncc45)nc(N4CCOCC4)c3s2)CC1 [pictilisib]
Outline: as §1

crizotinib = compound: C[C@@H](Oc1cc(-c2cnn(C3CCNCC3)c2)cnc1N)c1c(Cl)ccc(F)c1Cl [crizotinib]
Outline: as §1

duvelisib = compound: C[C@H](Nc1ncnc2nc[nH]c12)c1cc2cccc(Cl)c2c(=O)n1-c1ccccc1 [duvelisib]
Outline: as §1

doramapimod = compound: Cc1ccc(-n2nc(C(C)(C)C)cc2NC(=O)Nc2ccc(OCCN3CCOCC3)c3ccccc23)cc1 [doramapimod]
Outline: as §1

bafetinib = compound: Cc1ccc(NC(=O)c2ccc(CN3CC[C@H](N(C)C)C3)c(C(F)(F)F)c2)cc1Nc1nccc(-c2cncnc2)n1 [bafetinib]
Outline: as §1

dasatinib = compound: Cc1nc(Nc2ncc(C(=O)Nc3c(C)cccc3Cl)s2)cc(N2CCN(CCO)CC2)n1 [dasatinib]
Outline: as §1

[1] = compound: Cn1cc(-c2ccc3c(c2)CCN3C(=O)Cc2cccc(C(F)(F)F)c2)c2c(N)ncnc21
Outline: as §1

quisinostat = compound: Cn1cc(CNCC2CCN(c3ncc(C(=O)NO)cn3)CC2)c2ccccc21 [quisinostat]
Outline: as §1

[2] = compound: NC(=O)Nc1cc(-c2cccc(F)c2)sc1C(=O)N[C@H]1CCCNC1
Outline: as §1

[3] = compound: NC(=O)c1cnc(N[C@@H]2CCCC[C@@H]2N)nc1Nc1cccc(-n2nccn2)c1
Outline: as §1

[4] = compound: NC1(c2ccc(-c3nc4ccn5c(=O)[nH]nc5c4cc3-c3ccccc3)cc2)CCC1
Outline: as §1

[5] = compound: C[C@H](C1=CC=C(C=C1)C(=O)NC2=C3C=CNC3=NC=C2)N
Outline: as §1

gandotinib = compound: Cc1cc(Nc2cc(CN3CCOCC3)c3nc(C)c(Cc4ccc(Cl)cc4F)n3n2)n[nH]1 [gandotinib]
Outline: as §1

tozasertib = compound: Cc1cc(Nc2cc(N3CCN(C)CC3)nc(Sc3ccc(NC(=O)C4CC4)cc3)n2)n[nH]1 [tozasertib]
Outline: as §1

[6] = compound: Cc1cccc(CC(=O)N2CCc3c2ccc(-c2cn(C)c4ncnc(N)c24)c3F)n1
Outline: as §1

nilotinib = compound: Cc1cn(-c2cc(NC(=O)c3ccc(C)c(Nc4nccc(-c5cccnc5)n4)c3)cc(C(F)(F)F)c2)cn1 [nilotinib]
Outline: as §1

[7] = compound: Cc1nc(Nc2n[nH]c3c2CN(C(=O)N[C@H](CN(C)C)c2ccccc2)C3(C)C)c2sccc2n1
Outline: as §1

[8] = compound: Cc1ncc(-c2ccnc(Nc3ccc(S(C)(=O)=O)cc3)n2)n1C(C)C
Outline: as §1

tipifarnib = compound: Cn1cncc1[C@@](N)(c1ccc(Cl)cc1)c1ccc2c(c1)c(-c1cccc(Cl)c1)cc(=O)n2C [tipifarnib]
Outline: as §1

Measured: log2 fold change

AEBP2 (UniProt Q6ZN18)
inactive: lapatinib 0.031 | pictilisib 0.005 | crizotinib -0.059 | duvelisib -0.026 | doramapimod 0.009 | bafetinib 0.036 | dasatinib 0.126 | [1] -0.096 | quisinostat -0.164 | [2] 0.037 | [3] -0.07 | [4] -0.018

AKR1B10 (UniProt O60218)
inactive: duvelisib -0.023 | dasatinib 2.04 | [1] -0.042

ADIPOR1 (UniProt Q96A54)
inactive: pictilisib 0.002 | crizotinib -0.009 | [5] 0.091 | duvelisib 0.004 | gandotinib -0.097 | tozasertib -0.004 | doramapimod -0.057 | bafetinib -0.281 | [6] -0.025 | nilotinib -0.022 | [7] -0.004 | dasatinib -0.042 | [8] -0.212 | [1] 0.072 | quisinostat 0.074 | tipifarnib 0.099 | [2] -0.019 | [4] -0.018

AGPAT4 (UniProt Q9NRZ5)
inactive: pictilisib 0.005 | crizotinib -0.035 | [5] -0.273 | gandotinib 0.019 | tozasertib 0.197 | doramapimod -0.024 | bafetinib -0.028 | [6] 0.128 | quisinostat -0.138 | [2] 0.046 | [4] 0.042

ACTB, A0A2R8YGF8
inactive: pictilisib -0.107 | [5] -0.222 | gandotinib -0.108 | bafetinib 0.313 | [6] 0.01

AHDC1 (UniProt Q5TGY3)
inactive: pictilisib -0.044 | bafetinib -0.151

ACTR8 (UniProt Q9H981)
inactive: lapatinib -0.056 | duvelisib -0.086 | tozasertib 0.044 | nilotinib -0.032 | [7] -0.055 | dasatinib -0.339 | [8] 0.036 | [1] 0.09 | tipifarnib -0.114 | [3] 0.035 | [4] 0.17

ADD2 isoform 9 (UniProt P35612)
inactive: lapatinib 0.163 | [5] -0.168 | duvelisib -0.142 | gandotinib 0.133 | tozasertib 0.071 | [6] -0.025 | nilotinib 0.174 | [7] -0.108 | dasatinib -0.002 | [8] 0.492 | [1] -0.085 | tipifarnib -0.059 | [3] -0.184 | [4] 0.353

AFMID isoform 2 (UniProt Q63HM1)
inactive: crizotinib -0.051 | [5] -0.078 | gandotinib -0.008 | tozasertib 0.023 | doramapimod 0.049 | [6] 0.095 | quisinostat 0.033 | [2] 0.03

ADD3 isoform 2 (UniProt Q9UEY8)
inactive: crizotinib 0.027 | doramapimod -0.009 | quisinostat -0.065 | [2] 0.055

ACTR5 (UniProt Q9H9F9)
inactive: pictilisib -0.002 | crizotinib 0.069 | [5] 0.13 | duvelisib 0.071 | gandotinib -0.03 | tozasertib -0.016 | doramapimod 0.111 | bafetinib -0.109 | [6] -0.05 | nilotinib 0 | [7] 0 | dasatinib -0.072 | [8] 0.047 | [1] 0.029 | quisinostat 0.085 | tipifarnib -0.016 | [2] -0.107 | [4] 0.02

ACTN4 (UniProt H7C144)
inactive: duvelisib -0.078 | dasatinib -0.052 | [1] -0.034

ADPRM (UniProt Q3LIE5)
inactive: pictilisib 0.09 | crizotinib -0.017 | [5] -0.122 | gandotinib 0.08 | tozasertib 0.065 | doramapimod 0.117 | bafetinib -0.201 | [6] 0.149 | quisinostat 0.009 | [2] 0.058

AFM (UniProt P43652)
inactive: [5] 0.012 | gandotinib -0.032 | tozasertib 0.057 | [6] -0.003

ACSS3 (UniProt Q9H6R3)
inactive: pictilisib -0.15 | bafetinib 0.112

ADCY7 (UniProt P51828)
inactive: duvelisib -0.05 | nilotinib 0.111 | [7] 0.02 | dasatinib 0.079 | [8] -0.064 | [1] 0.063 | tipifarnib -0.178 | [4] 0.213

ADAT1 (UniProt Q9BUB4)
inactive: pictilisib -0.091 | bafetinib 0.124

ACVR2B (UniProt Q13705)
inactive: [4] -0.151

ADCK1 (UniProt Q86TW2)
inactive: [5] 0.157 | gandotinib 0.19 | tozasertib -0.076 | [6] 0.1

ACP5 (UniProt P13686)
inactive: [4] -0.087

ACVR1 (UniProt Q04771)
inactive: pictilisib 0.006 | [5] 0.103 | duvelisib -0.015 | gandotinib 0.643 | bafetinib 0.007 | [6] -0.294 | nilotinib -0.11 | [7] 0.013 | dasatinib 0.258 | [8] 0.476 | [1] -0.046 | tipifarnib -0.309

AHI1 (UniProt Q8N157)
inactive: tozasertib 0.053 | [4] 0.188

Pulled one by one from the entries so far, two records:
ACTR8 (UniProt Q9H981)
inactive: lapatinib -0.056 | duvelisib -0.086 | tozasertib 0.044 | nilotinib -0.032 | [7] -0.055 | dasatinib -0.339 | [8] 0.036 | [1] 0.09 | tipifarnib -0.114 | [3] 0.035 | [4] 0.17

ADCY7 (UniProt P51828)
inactive: duvelisib -0.05 | nilotinib 0.111 | [7] 0.02 | dasatinib 0.079 | [8] -0.064 | [1] 0.063 | tipifarnib -0.178 | [4] 0.213

(list continues)

AFDN (UniProt H0Y948)
inactive: crizotinib 0.249 | doramapimod -0.152 | quisinostat 0.102 | [2] -0.019

ADCY3 (UniProt O60266)
inactive: duvelisib 0.055 | dasatinib -0.002 | [1] 0.034 | [4] 0.359

ACOX3 (UniProt O15254)
inactive: pictilisib -0.204 | duvelisib 0.006 | tozasertib -0.012 | bafetinib 0.162 | dasatinib -0.065 | [1] -0.047

ACTG1 (UniProt K7EM38)
inactive: lapatinib -0.08 | tozasertib 0.207 | [3] 0.171

ACTB, A0A2R8YEA7
inactive: lapatinib 0.022 | [5] -0.128 | gandotinib 0.083 | [6] -0.172 | nilotinib 0.171 | [7] -0.194 | [8] 0.173 | tipifarnib -0.069 | [3] -0.206

AGPAT2 (UniProt O15120)
inactive: crizotinib -0.097 | [5] 0.006 | gandotinib -0.145 | tozasertib 0.048 | doramapimod 0.1 | [6] 0.021 | nilotinib -0.044 | [7] 0.046 | [8] -0.037 | quisinostat 0.006 | tipifarnib 0.029 | [2] 0.018 | [4] 0.02

AHCTF1 isoform 2 (UniProt Q8WYP5)
inactive: lapatinib -0.1 | [5] -0.04 | gandotinib 0.118 | [6] 0.119 | [3] 0.067 | [4] -0.03

AJUBA (UniProt Q96IF1)
inactive: crizotinib 0.023 | duvelisib -0.12 | doramapimod 0.167 | dasatinib 0.064 | [1] -0.129 | quisinostat -0.097 | [2] 0.02

AFDN (UniProt A8MQ02)
inactive: lapatinib -0.131 | [3] -0.205

ADAM17 (UniProt P78536)
inactive: pictilisib 0.032 | crizotinib 0.051 | [5] 0.008 | duvelisib 0.024 | gandotinib 0.054 | tozasertib -0.015 | doramapimod -0.06 | bafetinib 0.019 | [6] 0.099 | nilotinib -0.093 | [7] -0.151 | dasatinib -0.032 | [8] 0.021 | [1] 0.054 | quisinostat 0.01 | tipifarnib 0.039 | [2] 0.002 | [4] -0.012

ADAD1 (UniProt Q96M93)
inactive: lapatinib -0.081 | duvelisib 0.042 | tozasertib 0.051 | dasatinib -0.048 | [1] 0.037 | [3] 0.003

AGO2 (UniProt E5RJY2)
inactive: lapatinib 0.089 | [5] -0.386 | gandotinib 0.131 | [6] 0.138 | nilotinib -0.36 | [7] 0.399 | [8] 0.155 | tipifarnib 0.099 | [3] -0.025

AKR1C1 (UniProt Q04828)
inactive: lapatinib -0.176 | [5] 0.12 | duvelisib 0.037 | gandotinib -0.095 | tozasertib -0.019 | [6] -0.227 | dasatinib 0.057 | [1] -0.028 | [3] 0.094 | [4] 0.011
